PubChem BioAssay AID1159584 – Peter MacCallum Cancer Centre | 2016
In all, the deposit lists about 18,000 reagents; this is an unselected part. Not all columns of the deposit are shown. Reagent sequences are not shown. Not given: the amount of reagent, the time to read-out.

Aim: 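Genes that CDH1-null MCF10A cells selectively depend on to survive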 (primary screen)
Cells: human MCF10A breast epithelial cells, parental and CDH1-null
Reagents: siRNA against human genes
Measurement: 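Cell viability by CellTiter-Glo ATP luminescence, each line scaled to the mean of mock wells across plates, then CDH1-null over parental ratio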
Scale: CDH1-null / parental viability ratio: higher = CDH1-null cells survive relatively better than parental; CDH1-null viability vs mock: higher = more viable CDH1-null cells
Units: CDH1-null viability vs mock in fraction of mock

The first 2 entries, ahead of the listing:
TTPAL
- CDH1-null / parental viability ratio: 1.1
- CDH1-null viability vs mock: 0.67

DCAKD
- CDH1-null / parental viability ratio: 0.9
- CDH1-null viability vs mock: 0.54

Main list, from the first entry:
TTPAL
- CDH1-null / parental viability ratio: 1.1
- CDH1-null viability vs mock: 0.67

DCAKD
- CDH1-null / parental viability ratio: 0.9
- CDH1-null viability vs mock: 0.54

PRSS21
- CDH1-null / parental viability ratio: 1.29
- CDH1-null viability vs mock: 0.8

CCDC138
- CDH1-null / parental viability ratio: 0.94
- CDH1-null viability vs mock: 0.94

PANK3
- CDH1-null / parental viability ratio: 0.99
- CDH1-null viability vs mock: 1.11

TOP1MT
- CDH1-null / parental viability ratio: 0.84
- CDH1-null viability vs mock: 0.74

FANCD2
- CDH1-null / parental viability ratio: 1.12
- CDH1-null viability vs mock: 0.72

DIRC1
- CDH1-null / parental viability ratio: 1.2
- CDH1-null viability vs mock: 0.84

IGFL1
- CDH1-null / parental viability ratio: 0.95
- CDH1-null viability vs mock: 0.69

TTC22
- CDH1-null / parental viability ratio: 0.92
- CDH1-null viability vs mock: 0.68

DYNC1LI1
- CDH1-null / parental viability ratio: 0.89
- CDH1-null viability vs mock: 0.78

PAWR
- CDH1-null / parental viability ratio: 0.99
- CDH1-null viability vs mock: 0.85

ACSM4
- CDH1-null / parental viability ratio: 1.01
- CDH1-null viability vs mock: 0.87

SMPD3
- CDH1-null / parental viability ratio: 0.76
- CDH1-null viability vs mock: 0.61

DOK6
- CDH1-null / parental viability ratio: 1.15
- CDH1-null viability vs mock: 0.98

TGFA
- CDH1-null / parental viability ratio: 1.05
- CDH1-null viability vs mock: 0.98

OSTCP1
- CDH1-null / parental viability ratio: 1.17
- CDH1-null viability vs mock: 0.74

HNRNPA1
- CDH1-null / parental viability ratio: 1.07
- CDH1-null viability vs mock: 0.92

TRIM48
- CDH1-null / parental viability ratio: 0.93
- CDH1-null viability vs mock: 0.95

GET4
- CDH1-null / parental viability ratio: 1.07
- CDH1-null viability vs mock: 0.6

RAB23
- CDH1-null / parental viability ratio: 0.88
- CDH1-null viability vs mock: 0.92

TSHZ2
- CDH1-null / parental viability ratio: 1.03
- CDH1-null viability vs mock: 0.64

PSMC4
- CDH1-null / parental viability ratio: 0.81
- CDH1-null viability vs mock: 0.34

OPRPN
- CDH1-null / parental viability ratio: 0.84
- CDH1-null viability vs mock: 0.81

KCNK10
- CDH1-null / parental viability ratio: 1.16
- CDH1-null viability vs mock: 0.88

SDHAF2
- CDH1-null / parental viability ratio: 0.84
- CDH1-null viability vs mock: 0.76

ITPRID2
- CDH1-null / parental viability ratio: 1
- CDH1-null viability vs mock: 0.95

GIPC1
- CDH1-null / parental viability ratio: 1.06
- CDH1-null viability vs mock: 0.99

CATSPER4
- CDH1-null / parental viability ratio: 1.36
- CDH1-null viability vs mock: 0.83

IPCEF1
- CDH1-null / parental viability ratio: 0.84
- CDH1-null viability vs mock: 0.88

MPZ
- CDH1-null / parental viability ratio: 1.07
- CDH1-null viability vs mock: 0.6

COX5B
- CDH1-null / parental viability ratio: 1
- CDH1-null viability vs mock: 0.88

CDKL1
- CDH1-null / parental viability ratio: 0.74
- CDH1-null viability vs mock: 0.56

LGR5
- CDH1-null / parental viability ratio: 1.41
- CDH1-null viability vs mock: 1.03

MCOLN1
- CDH1-null / parental viability ratio: 1.22
- CDH1-null viability vs mock: 1.18
